Results deposited as PubChem BioAssay AID652243 (Drosophila RNAi Screening Center, 2013)
The deposit covers about 24,000 reagents; shown is a random part of those that have a named target and a result. In the full data, 246 (1%) got an active call. 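Plates not normalised; calls are printed but the firefly/Renilla ratio behind them is not deposited; fold cut for lowering reported inconsistently.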 Raw values are not corrected between plates. The record does not give: the amount of reagent.

- Assay: 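Fly genes required for human androgen receptor driven transcription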 (primary screen)
- Cell system: Drosophila S2R+ cells
- Reagents: long dsRNA against Drosophila genes
- Time to read-out: 72 h (48 h, then 24 h hormone)
- Conditions: synthetic androgen R1881 at 10 nM for 24 h
- Measured: 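Per-well raw luminescence of the androgen-driven firefly reporter and of the Renilla control, two replicates each, without normalisation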
- Scale: firefly reporter light: higher = more light from androgen-responsive reporter; Renilla control light: higher = more constitutive control signal (cell number, transfection)
- Rule for the call: 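Hit when the log firefly-to-Renilla ratio dropped or increased by a fixed fold versus the mean of GFP or LacZ controls across duplicate plates; lowering cut given as 1.5 and as 3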
- Calls: active = hit: reporter lowered or raised; inactive = no hit

| target | dsRNA | firefly reporter light, replicate 1 | firefly reporter light, replicate 2 | Renilla control light, replicate 1 | Renilla control light, replicate 2 | call |
| --- | --- | --- | --- | --- | --- | --- |
| CG34384 | DRSC12642 | 3.98e5 | 5.92e5 | 2.91e6 | 3.12e6 | inactive |
| CG34384 | DRSC14855 | 90555 | 74273 | 2.13e6 | 1.75e6 | inactive |
| CG34384 | DRSC15444 | 1.39e5 | 92487 | 2.94e6 | 1.68e6 | inactive |
| CG34384 | DRSC16575 | 82399 | 98913 | 1.79e6 | 1.98e6 | inactive |
| CG34384 | DRSC37078 | – | – | – | – | inactive |
| dmrt11E | DRSC19715 | 9.39e5 | 1.08e6 | 1.32e6 | 1.27e6 | inactive |
| dmrt11E | DRSC23784 | 5.50e5 | 4.39e5 | 5.05e5 | 5.03e5 | inactive |
| nab | DRSC08455 | 1.80e5 | 1.90e5 | 1.75e6 | 1.97e6 | inactive |
| nab | DRSC08456 | 60175 | 1.11e5 | 1.84e6 | 2.25e6 | inactive |
| sp3 | DRSC16354 | 3.50e5 | 2.12e5 | 3.52e6 | 3.36e6 | inactive |

Copied from above (2 entries):
| target | dsRNA | firefly reporter light, replicate 1 | firefly reporter light, replicate 2 | Renilla control light, replicate 1 | Renilla control light, replicate 2 | call |
| --- | --- | --- | --- | --- | --- | --- |
| CG34384 | DRSC14855 | 90555 | 74273 | 2.13e6 | 1.75e6 | inactive |
| CG34384 | DRSC15444 | 1.39e5 | 92487 | 2.94e6 | 1.68e6 | inactive |

More records follow:
| target | dsRNA | firefly reporter light, replicate 1 | firefly reporter light, replicate 2 | Renilla control light, replicate 1 | Renilla control light, replicate 2 | call |
| --- | --- | --- | --- | --- | --- | --- |
| Stt3A | DRSC20514 | 76005 | 76107 | 4.77e5 | 5.30e5 | inactive |
| Stt3A | DRSC24884 | 4.19e5 | 6.29e5 | 3.76e5 | 4.05e5 | inactive |
| SmydA-7 | DRSC07340 | 1.17e6 | 1.09e6 | 2.31e6 | 1.72e6 | inactive |
| Trs31 | DRSC05975 | 8.16e5 | 5.64e5 | 1.07e6 | 1.04e6 | inactive |
| wap | DRSC20626 | 76378 | 78737 | 5.61e5 | 5.76e5 | inactive |
| CG17562 | DRSC15243 | 1.52e5 | 1.61e5 | 2.05e6 | 2.64e6 | inactive |
| Socs36E | DRSC02455 | 2.50e5 | 1.99e5 | 2.93e6 | 2.26e6 | active |
| Socs36E | DRSC27917 | 5.68e5 | 4.76e5 | 2.38e6 | 1.22e6 | inactive |
| EloB | DRSC16663 | 2.20e5 | 2.36e5 | 3.19e6 | 3.45e6 | inactive |
| alpha-Est1 | DRSC12612 | 18803 | 36406 | 1.98e5 | 2.60e5 | inactive |
| Dic3 | DRSC06058 | 3.77e5 | 3.42e5 | 2.20e6 | 2.48e6 | inactive |
| brv3 | DRSC18657 | 1.66e5 | 1.59e5 | 2.98e6 | 2.40e6 | inactive |
| brv3 | DRSC25544 | 1.19e6 | 1.03e6 | 1.16e6 | 1.08e6 | inactive |
| MRG15 | DRSC16731 | 32355 | 65785 | 3.81e5 | 4.00e5 | inactive |
